Results deposited as PubChem BioAssay AID1259425 (University of Nebraska Medical Center, 2018).
This is one part, drawn at random, of about 14,000 deposited reagents. Further read-outs or replicates are left out here. The record does not give: the time to read-out.

Assay: 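Compare each knockdown with KSR1 silencing using changes in marker transcripts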 (primary screen)
Cells: HCT116 human colon cancer cells
Reagent: siRNA pool against human genes, 50 nM siRNA
Detection: 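mRNA of six signature genes measured together by branched-DNA assay after 50 nM siRNA pool, blank removed, divided by geometric mean of two housekeeping genes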
Direction: BNIP3L mRNA: higher = more BNIP3L transcript after knockdown; NDRG1 mRNA: higher = more NDRG1 transcript after knockdown

Against ZNF19 (zinc finger protein 19), the entry reads BNIP3L mRNA, set 1 = 0.112; NDRG1 mRNA, set 1 = 0.217.
Knock-down of DDX43 (DEAD-box helicase 43) came out at: BNIP3L mRNA, set 1 = 0.0734; NDRG1 mRNA, set 1 = 0.145.
A1BG (alpha-1-B glycoprotein) gave BNIP3L mRNA, set 1 = 0.0525; NDRG1 mRNA, set 1 = 0.215.
Silencing of IL37 (interleukin 37) came out at: BNIP3L mRNA, set 1 = 0.0817; NDRG1 mRNA, set 1 = 0.319.
For RPP30 (ribonuclease P/MRP subunit p30), the values are BNIP3L mRNA, set 1 = 0.135; NDRG1 mRNA, set 1 = 0.158.
After knock-down of BCAP31 (B cell receptor associated protein 31) the results were BNIP3L mRNA, set 1 = 0.164; NDRG1 mRNA, set 1 = 0.345.
NIN (ninein) scored BNIP3L mRNA, set 1 = 0.0634; NDRG1 mRNA, set 1 = 0.376.
With knock-down of NDUFS7 (NADH:ubiquinone oxidoreductase core subunit S7), the record shows BNIP3L mRNA, set 1 = 0.218; NDRG1 mRNA, set 1 = 0.663.
Knock-down of ATPAF1 (ATP synthase mitochondrial F1 complex assembly factor 1) resulted in: BNIP3L mRNA, set 1 = 0.127; NDRG1 mRNA, set 1 = 0.422.

4 entries from above, showing only “BNIP3L mRNA, set 1”.
ZNF19 (zinc finger protein 19) = 0.112
DDX43 (DEAD-box helicase 43) = 0.0734
A1BG (alpha-1-B glycoprotein) = 0.0525
IL37 (interleukin 37) = 0.0817

Next records follow.
Knock-down of SLC45A3 came out at: BNIP3L mRNA, set 1 = 0.187; NDRG1 mRNA, set 1 = 1.28.
RBM27 (RNA binding motif protein 27) gave BNIP3L mRNA, set 1 = 0.111; NDRG1 mRNA, set 1 = 0.34.
After knock-down of REX1BD (required for excision 1-B domain containing) the results were BNIP3L mRNA, set 1 = 0.0654; NDRG1 mRNA, set 1 = 0.0888.
MAGI3 showed BNIP3L mRNA, set 1 = 0.171; NDRG1 mRNA, set 1 = 0.973.
Silencing of TMED1 (transmembrane p24 trafficking protein 1) came out at: BNIP3L mRNA, set 1 = 0.0888; NDRG1 mRNA, set 1 = 0.151.
GRIK5 (glutamate ionotropic receptor kainate type subunit 5) gave BNIP3L mRNA, set 1 = 0.0725; NDRG1 mRNA, set 1 = 0.331.
Against CCL8 (C-C motif chemokine ligand 8) the deposit lists BNIP3L mRNA, set 1 = 0.0952; NDRG1 mRNA, set 1 = 0.0927.
MAGT1 (magnesium transporter 1) scored BNIP3L mRNA, set 1 = 0.203; NDRG1 mRNA, set 1 = 0.263.
Against SMARCB1 (SWI/SNF related BAF chromatin remodeling complex subunit B1), the entry reads BNIP3L mRNA, set 1 = 0.079; NDRG1 mRNA, set 1 = 0.235.
Against PKD2 (polycystin 2, transient receptor potential cation channel), the entry reads BNIP3L mRNA, set 1 = 0.108; NDRG1 mRNA, set 1 = 0.0633.
Against GABARAP (GABA type A receptor-associated protein), the entry reads BNIP3L mRNA, set 1 = 0.301; NDRG1 mRNA, set 1 = 0.174.
Knock-down of HTR2B (5-hydroxytryptamine receptor 2B) resulted in: BNIP3L mRNA, set 1 = 0.0562; NDRG1 mRNA, set 1 = 0.107.
RPL29 (ribosomal protein L29) scored BNIP3L mRNA, set 1 = 0.0587; NDRG1 mRNA, set 1 = 0.053.
For PRDM5 (PR/SET domain 5), the values are BNIP3L mRNA, set 1 = 0.0566; NDRG1 mRNA, set 1 = 0.106.
Depletion of ESRRB (estrogen related receptor beta) came out at: BNIP3L mRNA, set 1 = 0.0877; NDRG1 mRNA, set 1 = 0.163.
With knock-down of SOX3 (SRY-box transcription factor 3), the record shows BNIP3L mRNA, set 1 = 0.216; NDRG1 mRNA, set 1 = 0.584.
LINC00260 (long independently transcribed non-coding RNA 260) gave BNIP3L mRNA, set 1 = 0.135; NDRG1 mRNA, set 1 = 0.389.
Knock-down of ADAMTS6 (ADAM metallopeptidase with thrombospondin type 1 motif 6) resulted in: BNIP3L mRNA, set 1 = 0.0889; NDRG1 mRNA, set 1 = 0.189.
With knock-down of SORBS3 (sorbin and SH3 domain containing 3) the results were BNIP3L mRNA, set 1 = 0.0494; NDRG1 mRNA, set 1 = 0.167.
